Results are given in words; binding and its absence hold for the method and conditions named. For some assays here: A result given as binding can be weak or reduced; the word gives no strength.
Legend:
RSV-A F (RSV A) = test: post stress affinity
RSV-B F (RSV B) [1] = test: post stress affinity
[2] = biological target: RSV B F protein, China 2014 strain (RSV B, China 2014 strain); test: post stress RSV B F protein binding
RSV F B S443P (RSV B) = test: post stress RSV B F protein binding
RSV-B F (RSV B) [3] = test: post stress RSV B F protein binding
[4] = biological target: AGJ74087.1_hMPV_Australia_2003 (human metapneumovirus); test: FACS on Expi293F cells transiently transfected with the F protein; heat map, scale 20-100
[5] = biological target: AGJ74228.1_hMPV_Australia_2003 (human metapneumovirus); test: as above
[6] = biological target: AGT75033.1_hMPV_Australia_2004 (human metapneumovirus); test: as above
[7] = biological target: AHV79446.1_hMPV_Peru_2011 (human metapneumovirus); test: as above
[8] = biological target: AUF72427.1_hMPV_USA_2016 (human metapneumovirus); test: as above
[9] = biological target: BAM37601.1_hMPV_Japan_2008 (human metapneumovirus); test: as above
[10] = biological target: BBB34997.1_hMPV_Japan_2013 (human metapneumovirus); test: as above
[11] = biological target: HMPV_Yokohama/JPN(P8527)2016 (human metapneumovirus); test: as above
[12] = biological target: QDA18352.1_hMPV_Nepal_2013 (human metapneumovirus); test: as above
[13] = biological target: QDA18360.1_hMPV_Nepal_2013 (human metapneumovirus); test: as above
[14] = biological target: QDA18363.1_hMPV_Nepal_2012 (human metapneumovirus); test: as above
[15] = biological target: QDA18379.1_hMPV_Nepal_2012 (human metapneumovirus); test: as above
[16] = biological target: QQV74443.1_hMPV_China_2011 (human metapneumovirus); test: as above
[17] = biological target: QRM13862.1_hMPV_China_2017 (human metapneumovirus); test: as above

B1: MPK176-v1.3 (antibody, V domains shown)
VH: QVQLVQSGAEVKKPGASVRVSCKASGYTLTAYGISWVRQAPGQGLEWMGWISPKHGNTHYAQRFQGRVTMTTDTSTSTAYMELRSLRPDDTAVYFCAREGVDIMAVPWYFDYWGQGTLVAVSS
VL: SYVLTQPPSVSVAPGQTARISCGGNNIGSKSVHWYQQKPGQAPVVVVYDDSKRPSGIPERFSGSNSGNTATLTISGVEAGDEADYFCQVWDSATDHWVFGGGTKLTVL
RSV-A F (RSV A)
  binding: binds
RSV-B F (RSV B) [1]
  binding: binds
[2]
  binding: binds
RSV F B S443P (RSV B)
  binding: binds

B2: MPK176-v4.3 (antibody, V domains shown)
VH: QVQLVQSGAEVKKPGASVRVSCKASGYTLTAYGISWVRQAPGQGLEWMGWISPKHGSTHYAQRFQGRVTMTTDTSTSTAYMELRSLRPDDTAVYFCAREGVDIMAVPWYFDYWGQGTLVAVSS
VL: SYVLTQPPSVSVAPGQTARISCGGNNIGSKSVHWYQQKPGQAPVVVVYDDSKRPSGIPERFSGSNSGNTATLTISGVEAGDEADYFCQVWDSATDHWVFGGGTKLTVL
RSV-A F (RSV A)
  binding: binds
RSV-B F (RSV B) [1]
  binding: binds
[2]
  binding: binds
RSV F B S443P (RSV B)
  binding: binds

B3: MPK201-v1.2 (antibody, V domains shown)
VH: EVQLVQSGAEVKKPGESLKISCQGSGYSFINYWIGWVRQKPGKGLEWMGIIYPFDSETKYSPSFQGHVTFSADKSINTAYVQWSSLRASDTAMYYCARFTFGLAVTTADVSGEGQAFEIWGQGTMVTVSS
VL: QIVMMQSPATLSVSPGERATLSCRASQSVAGNLAWYQQRPGQAPRLLVYGASTRASGVPARFSGSGSETEFTLTISSLQSEDFAVYYCHHYSDLPQAFGQGTRLDIK
RSV-A F (RSV A)
  binding: binds
RSV-B F (RSV B) [1]
  binding: binds

B4: MPK201-v4.1 (antibody, V domains shown)
VH: QVQLVQSGAEVKKPGESLKISCQGSGYSFISYWIGWVRQKPGKGLEWMGIIYPFDSETKYSPSFQGHVTFSADKSINTAYVQWSSLRASDTAMYYCARFTFGLAVTTADVSGEGQAFEIWGQGTMVTVSS
VL: EIVMMQSPATLSVSPGERATLSCRASQSVAGNLAWYQQRPGQAPRLLVYGASTRASGVPARFSGSGSETEFTLTISSLQSEDFAVYYCHHYSDWPQAFGQGTRLDIK
RSV-A F (RSV A)
  binding: binds
RSV-B F (RSV B) [1]
  binding: binds

B5: MPK65-v2-v1.2 (antibody, V domains shown)
VH: QVPLVQSGAEVKKPGESLKISCKGSGYSFINYWIGWVRQMPGKGLEWMGVIYPFDSDTKYSPSFQGHVTISADKSSNTAYVQWSSLKASDTAMYYCARFTFGIAVVTDDVSGEGQAFEIWGQGTMVTVSS
VL: QIVMMQSPATLSVSPGERATLSCRASQSVAGNLAWYQQRPGQAPRLLIYGASTRATGVPARFSGSGSETEFTLTISSLQSEDFAVYYCHQYSNLPQAFGQGTRLDIK
RSV-A F (RSV A)
  binding: binds
RSV-B F (RSV B) [1]
  binding: binds
RSV-B F (RSV B) [3]
  binding: binds

B6: MPK146 (antibody, V domains shown)
VH: QVQLVESGGGLVKPGGSLRLSCAASGFTFSGYYMIWIRQAPGKGLEWIASISGSSNYIDYADSVRGRFTISRDNARNILDLQMNSLRAGDTALYYCATEQVPSPGPFDLWGQGTLVTVSS
VL: QSVLTQPPSVSGAPGQRVTISCTGSNSNLGAGYDVHWYQQFPGTSPKLLIYRNTNRPSGVPDRFAGSKSGTSASLAITGLQAEDEADYYCQSYDRSLSGWVFGGGTKLTVL
[4]
  binding: binds
[5]
  binding: binds
[6]
  binding: binds
[7]
  binding: binds
[8]
  binding: binds
[9]
  binding: no binding (tested: not given)
[10]
  binding: binds
[11]
  binding: no binding (tested: not given)
[12]
  binding: binds
[13]
  binding: binds
[14]
  binding: no binding (tested: not given)
[15]
  binding: binds
[16]
  binding: binds
[17]
  binding: binds

Source: patent US20260028391A1
